Data taken from article PMC12431657, “Discovery and mechanistic insights of dibenzoylmethane as a broad spectrum inhibitor of coronavirus” (PLOS Pathogens, 2025).
Where two headings read alike, the source gives them in different places. About 60 (2%) of roughly 3,300 compounds showed an effect of 50% or more. Some of the results follow. Peptide text beside a SMILES is read from it.

Tested on: HCoV-OC43
Set-up: species or system RD; HTS, protection from HCoV-OC43 induced cell death, luminescent cell viability (CellCounting-Lite 2.0), inhibition rate
Conditions: 24 h post infection, 1 h compound pre-incubation, 10 µM, inhibitor

| Compound | OC43 Inhibition rate | OC43 Inhibition rate (OC43 Inhibition rate, 24 h) |
| --- | --- | --- |
| CC(C)(O)CC[C@@H](O)[C@](C)(O)[C@H]1CC[C@@]2(O)C3=CC(=O)[C@@H]4C[C@@H](O)[C@@H](O)C[C@]4(C)[C@H]3CC[C@]12C [Crustecdysone] | 0% |  |
| COc1ccc2c(c1O)-c1c(O)c(OC)cc3c1[C@H](C2)[N+](C)(C)CC3 [(+)-Magnoflorine (chloride)] | 2.4% |  |
| O=C1c2c(O)cc(O)cc2O[C@H](c2ccc(O)c(O)c2)[C@H]1O [Taxifolin] | 2.1% |  |
| C=C(C)[C@@H]1CCC2=CCC[C@@H](C)[C@]2(C)C1 [Valencene] | 1.5% |  |
| CC1(C)CC[C@]2(C(=O)O[C@@H]3O[C@H](CO[C@@H]4O[C@H](CO)[C@@H](O)[C@H](O)[C@H]4O)[C@@H](O)[C@H](O)[C@H]3O)CC[C@]3(C)C(=CC[C@@H]4[C@@]5(C)CC[C@H](O[C@@H]6OC[C@H](O)[C@H](O)[C@H]6O)[C@@](C)(CO)[C@@H]5CC[C@]43C)[C@@H]2C1 [Asperosaponin VI] | -0.1% |  |
| CC(C)=C[C@H]1C[C@](C)(O)[C@@H]2[C@H]3CC[C@@H]4[C@@]5(C)CC[C@H](O[C@@H]6OC[C@H](O)[C@H](O[C@@H]7O[C@H](CO)[C@@H](O)[C@H](O)[C@H]7O[C@@H]7OC[C@@H](O)[C@H](O)[C@H]7O)[C@H]6O[C@@H]6O[C@@H](C)[C@H](O)[C@@H](O)[C@H]6O)C(C)(C)[C@@H]5CC[C@@]4(C)[C@@]34CO[C@@]2(C4)O1 [Jujuboside B] | 0.5% |  |
| COc1cc(O)c(C(C)=O)c(OC)c1 [Xanthoxylin] | 0% |  |
| C[C@]12CCC(=O)C[C@H]1CC[C@@H]1[C@@H]2[C@@H](O)C[C@@]2(C)[C@H]1CC[C@]2(O)C(=O)CO [5β-Dihydrocortisol] | 2.7% |  |
| C[S+](CCC(N)C(=O)[O-])C[C@H]1O[C@@H](n2cnc3c(N)ncnc32)[C@H](O)[C@@H]1O (mixture of isomers) [S-Adenosyl-DL-methionine] | -0.6% |  |
| Cc1ncc(C[n+]2csc(CCOP(=O)(O)O)c2C)c(N)n1 [Thiamine monophosphate (chloride) (dihydrate)] | -1.9% |  |
| CC(=O)OCC(=O)[C@@]1(O)CC[C@H]2[C@@H]3CCC4=CC(=O)CC[C@]4(C)[C@H]3C(=O)C[C@@]21C [Cortisone acetate] | 3.9% |  |
| CC1(C)CC[C@]2(C(=O)O[C@@H]3O[C@H](CO)[C@@H](O)[C@H](O)[C@H]3O)[C@H](O)C[C@]3(C)C(=CC[C@@H]4[C@@]5(C)CC[C@H](O[C@@H]6O[C@H](CO)[C@@H](O)[C@H](O)[C@H]6O)C(C)(C)[C@@H]5CC[C@]43C)[C@@H]2C1 [Eclalbasaponin I] | -0.2% |  |
| C[C@@H]1O[C@@H](O[C@H]2C(=O)c3c(O)cc(O)cc3O[C@H]2c2ccc(O)c(O)c2)[C@H](O)[C@H](O)[C@H]1O [Neoisoastilbin] | -1.4% |  |
| CC1(C)O[C@H]2CC(=O)OC[C@@]23[C@H]1CC(=O)[C@@]1(C)C2=CC(=O)O[C@@H](c4ccoc4)[C@]2(C)CC[C@@H]13 [Deoxylimonin] | 3% |  |
| COc1cc2c(cc1OC)-c1cc3ccc(OC)c(O)c3c[n+]1CC2 [Palmaturbine] |  | 3.8% |
| O=C1CCN([C@@H]2O[C@H](CO)[C@@H](O)[C@H]2O)C(=O)N1 [5,6-Dihydrouridine] | -2.9% |  |
| OC[C@@H](O)[C@@H](O)[C@H](O)[C@@H](O)CO [D-Sorbitol] | 0% |  |
| O=C(O)c1ccc[nH]1 [Pyrrole-2-carboxylic acid] | 4.1% |  |
| COc1cc(CCO)ccc1O [Homovanillyl alcohol] | -1% |  |
| CC1(C)[C@@H](O[C@@H]2OC[C@H](O[C@@H]3O[C@H](CO)[C@@H](O)[C@H](O)[C@H]3O[C@@H]3OC[C@@H](O)[C@H](O)[C@H]3O)[C@H](O)[C@H]2O[C@@H]2O[C@H](CO)[C@@H](O)[C@H](O)[C@H]2O)CC[C@]2(C)[C@H]3CC[C@]45OC[C@@]6(CC[C@](C)(C=O)C[C@H]64)[C@H](O)C[C@@]5(C)[C@]3(C)CC[C@@H]12 [Ardisiacrispin A] | -1.4% |  |
| NC(=O)c1ncn([C@@H]2O[C@H](CO)[C@@H](O)[C@H]2O)c1N [AICAR (phosphate)] | 3.6% |  |
| CC1(C)CC[C@]2(C(=O)O)CC[C@]3(C)C(=CC[C@@H]4[C@@]5(C)CC[C@H](O[C@@H]6O[C@H](C(=O)O)[C@@H](O[C@@H]7O[C@@H](CO)[C@H](O)[C@H]7O)[C@H](O)[C@H]6O)C(C)(C)[C@@H]5CC[C@]43C)[C@@H]2C1 [Tarasaponin VI] | -2.6% |  |
| CC[C@H](C)[C@H](N)C(=O)N[C@@H](C)C(=O)N[C@@H](CCCN=C(N)N)C(=O)N[C@@H](CCCN=C(N)N)C(=O)N[C@@H](Cc1cnc[nH]1)C(=O)N1CCC[C@H]1C(=O)N[C@@H](Cc1ccc(O)cc1)C(=O)N[C@@H](Cc1ccccc1)C(=O)N[C@@H](CC(C)C)C(=O)O [Kinetensin] (H-IARRHPYFL-OH) | -0.6% |  |
| C[C@@H]1C(=O)O[C@H]2C[C@@]34[C@H]5C[C@@H](C(C)(C)C)[C@]36[C@@H](OC(=O)[C@@H]6O)O[C@@]4(C(=O)O5)[C@]21O [Ginkgolide A] | 0% |  |
| CC1(C)CC[C@]2(C)CC[C@]3(C)C(=CC[C@@H]4[C@@]5(C)CC[C@@H](O)[C@](C)(C(=O)O)[C@@H]5CC[C@]43C)[C@@H]2C1 [alpha-Boswellic acid] | 6% |  |
| CCCCCC1=C(C)CCC1=O [Dihydrojasmone] | 0.1% |  |
| Nc1nc2ncc([C@H](O)[C@H](O)CO)nc2c(=O)[nH]1 [Neopterin] | 0.5% |  |
| CNCC(O)c1ccc(O)cc1 (centres unmarked) [p-Synephrine] |  | 2.7% |
| O=C(O)c1cc(O)c2c(c1)[C@H]([C@H]1c3cc(C(=O)O)cc(O)c3C(=O)c3c(O[C@@H]4O[C@H](CO)[C@@H](O)[C@H](O)[C@H]4O)cccc31)c1cccc(O[C@@H]3O[C@H](CO)[C@@H](O)[C@H](O)[C@H]3O)c1C2=O [Sennoside A] | 0.5% |  |

Another view of two compounds above:
Compound	OC43 Inhibition rate	OC43 Inhibition rate (OC43 Inhibition rate, 24 h)
C[C@@H]1O[C@@H](O[C@H]2C(=O)c3c(O)cc(O)cc3O[C@H]2c2ccc(O)c(O)c2)[C@H](O)[C@H](O)[C@H]1O [Neoisoastilbin]	-1.4%	
CC1(C)O[C@H]2CC(=O)OC[C@@]23[C@H]1CC(=O)[C@@]1(C)C2=CC(=O)O[C@@H](c4ccoc4)[C@]2(C)CC[C@@H]13 [Deoxylimonin]	3%	
